# Reference: publication PMC3072367
# By UniProt entry, the sequences of proteins in these tests, tags left out.
# UniProt O00471: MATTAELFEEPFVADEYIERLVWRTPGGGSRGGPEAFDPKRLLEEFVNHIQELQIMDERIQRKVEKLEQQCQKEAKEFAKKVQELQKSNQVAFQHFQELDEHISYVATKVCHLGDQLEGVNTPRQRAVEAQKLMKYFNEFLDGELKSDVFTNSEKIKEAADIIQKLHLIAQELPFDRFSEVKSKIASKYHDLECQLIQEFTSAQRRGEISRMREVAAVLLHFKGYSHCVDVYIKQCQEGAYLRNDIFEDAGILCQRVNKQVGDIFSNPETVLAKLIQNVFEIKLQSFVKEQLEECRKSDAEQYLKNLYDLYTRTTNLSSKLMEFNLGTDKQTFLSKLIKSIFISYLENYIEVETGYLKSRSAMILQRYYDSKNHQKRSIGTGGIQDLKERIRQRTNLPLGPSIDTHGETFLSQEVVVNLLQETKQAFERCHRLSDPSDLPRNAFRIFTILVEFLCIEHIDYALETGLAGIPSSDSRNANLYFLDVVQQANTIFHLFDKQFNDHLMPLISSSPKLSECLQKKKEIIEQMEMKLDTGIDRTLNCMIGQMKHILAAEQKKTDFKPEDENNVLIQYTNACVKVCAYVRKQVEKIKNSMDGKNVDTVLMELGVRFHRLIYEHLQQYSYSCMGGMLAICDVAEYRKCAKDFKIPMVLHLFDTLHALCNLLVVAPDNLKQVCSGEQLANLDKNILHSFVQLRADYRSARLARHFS
# UniProt P04406: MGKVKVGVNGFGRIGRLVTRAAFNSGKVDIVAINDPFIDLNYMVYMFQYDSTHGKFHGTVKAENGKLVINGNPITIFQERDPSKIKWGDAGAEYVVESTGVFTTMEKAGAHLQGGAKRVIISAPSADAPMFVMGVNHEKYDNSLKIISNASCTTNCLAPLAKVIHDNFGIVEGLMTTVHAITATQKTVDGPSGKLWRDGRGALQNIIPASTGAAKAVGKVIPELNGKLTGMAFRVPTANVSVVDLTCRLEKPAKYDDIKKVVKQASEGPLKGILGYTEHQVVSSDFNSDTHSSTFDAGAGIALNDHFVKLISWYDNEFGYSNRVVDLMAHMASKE
# UniProt Q8IY31: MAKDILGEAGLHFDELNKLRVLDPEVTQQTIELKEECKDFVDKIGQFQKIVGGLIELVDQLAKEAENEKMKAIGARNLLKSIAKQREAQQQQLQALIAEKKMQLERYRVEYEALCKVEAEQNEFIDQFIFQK
# UniProt O35382: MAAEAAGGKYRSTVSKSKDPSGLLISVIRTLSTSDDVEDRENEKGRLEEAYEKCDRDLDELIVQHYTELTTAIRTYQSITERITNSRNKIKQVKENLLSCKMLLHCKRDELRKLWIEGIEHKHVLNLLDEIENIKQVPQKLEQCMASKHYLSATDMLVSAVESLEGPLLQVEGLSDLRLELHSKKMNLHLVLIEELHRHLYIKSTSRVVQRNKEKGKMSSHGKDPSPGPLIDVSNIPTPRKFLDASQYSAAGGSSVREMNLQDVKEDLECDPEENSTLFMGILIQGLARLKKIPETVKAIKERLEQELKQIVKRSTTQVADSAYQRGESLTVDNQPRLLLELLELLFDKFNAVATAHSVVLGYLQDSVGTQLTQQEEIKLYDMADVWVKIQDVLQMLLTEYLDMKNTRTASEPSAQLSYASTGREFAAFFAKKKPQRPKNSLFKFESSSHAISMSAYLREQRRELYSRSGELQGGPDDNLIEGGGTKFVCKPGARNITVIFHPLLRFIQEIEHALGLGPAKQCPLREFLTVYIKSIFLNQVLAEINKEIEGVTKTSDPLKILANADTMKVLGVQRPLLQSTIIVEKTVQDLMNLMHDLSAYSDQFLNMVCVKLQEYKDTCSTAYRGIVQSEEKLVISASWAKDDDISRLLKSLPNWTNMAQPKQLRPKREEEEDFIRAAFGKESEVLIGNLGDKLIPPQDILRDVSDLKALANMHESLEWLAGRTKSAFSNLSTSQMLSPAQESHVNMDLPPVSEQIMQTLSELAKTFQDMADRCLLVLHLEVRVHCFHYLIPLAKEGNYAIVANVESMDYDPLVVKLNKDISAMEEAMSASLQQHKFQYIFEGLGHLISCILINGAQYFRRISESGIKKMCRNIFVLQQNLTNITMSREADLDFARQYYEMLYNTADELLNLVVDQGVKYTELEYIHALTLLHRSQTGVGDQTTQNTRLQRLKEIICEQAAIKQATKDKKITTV
# No constants are given. Whether binding was seen depends on the method and setting. In cells and extracts the contact can be indirect. Some binding calls cover weakened binding; strength is not graded here.
# B1: polycystin-2 (in vitro translated) (protein, UniProt Q13563 1-968)
# chain: MVNSSRVQPQQPGDAKRPPAPRAPDPGRLMAGCAAVGASLAAPGGLCEQRGLEIEMQRIRQAAARDPPAGAAASPSPPLSSCSRQAWSRDNPGFEAEEEEEEVEGEEGGMVVEMDVEWRPGSRRSAASSAVSSVGARSRGLGGYHGAGHPSGRRRRREDQGPPCPSPVGGGDPLHRHLPLEGQPPRVAWAERLVRGLRGLWGTRLMEESSTNREKYLKSVLRELVTYLLFLIVLCILTYGMMSSNVYYYTRMMSQLFLDTPVSKTEKTNFKTLSSMEDFWKFTEGSLLDGLYWKMQPSNQTEADNRSFIFYENLLLGVPRIRQLRVRNGSCSIPQDLRDEIKECYDVYSVSSEDRAPFGPRNGTAWIYTSEKDLNGSSHWGIIATYSGAGYYLDLSRTREETAAQVASLKKNVWLDRGTRATFIDFSVYNANINLFCVVRLLVEFPATGGVIPSWQFQPLKLIRYVTTFDFFLAACEIIFCFFIFYYVVEEILEIRIHKLHYFRSFWNCLDVVIVVLSVVAIGINIYRTSNVEVLLQFLEDQNTFPNFEHLAYWQIQFNNIAAVTVFFVWIKLFKFINFNRTMSQLSTTMSRCAKDLFGFAIMFFIIFLAYAQLAYLVFGTQVDDFSTFQECIFTQFRIILGDINFAEIEEANRVLGPIYFTTFVFFMFFILLNMFLAIINDTYSEVKSDLAQQKAEMELSDLIRKGYHKALVKLKLKKNTVDDISESLRQGGGKLNFDELRQDLKGKGHTDAEIEAIFTKYDQDGDQELTEHEHQQMRDDLEKEREDLDLDHSSLPRPMSSRSFPRSLDDSEEDDDEDSGHSSRRRGSISSGVSYEEFQVLVRRVDRMEHSIGSIVSKIDAVIVKLEIMERAKLKRREVLGRLLDGVAEDERLGRDSEIHREQMERLVREELERWESDDAASQISHGLGTPVGLNGQPRPRSSRPSSSQSTEGMEGAGGNGSSNVHV
# B2: IFT88 (in vitro translated) (protein, UniProt Q13099 1-824)
# chain: MMQNVHLAPETDEDDLYSGYNDYNPIYDIEELENDAAFQQAVRTSHGRRPPITAKISSTAVTRPIATGYGSKTSLASSIGRPMTGAIQDGVTRPMTAVRAAGFTKAALRGSAFDPLSQSRGPASPLEAKKKDSPEEKIKQLEKEVNELVEESCIANSCGDLKLALEKAKDAGRKERVLVRQREQVTTPENINLDLTYSVLFNLASQYSVNEMYAEALNTYQVIVKNKMFSNAGILKMNMGNIYLKQRNYSKAIKFYRMALDQVPSVNKQMRIKIMQNIGVTFIQAGQYSDAINSYEHIMSMAPNLKAGYNLTICYFAIGDREKMKKAFQKLITVPLEIDEDKYISPSDDPHTNLVTEAIKNDHLRQMERERKAMAEKYIMTSAKLIAPVIETSFAAGYDWCVEVVKASQYVELANDLEINKAVTYLRQKDYNQAVEILKVLEKKDSRVKSAAATNLSALYYMGKDFAQASSYADIAVNSDRYNPAALTNKGNTVFANGDYEKAAEFYKEALRNDSSCTEALYNIGLTYEKLNRLDEALDCFLKLHAILRNSAEVLYQIANIYELMENPSQAIEWLMQVVSVIPTDPQVLSKLGELYDREGDKSQAFQYYYESYRYFPCNIEVIEWLGAYYIDTQFWEKAIQYFERASLIQPTQVKWQLMVASCFRRSGNYQKALDTYKDTHRKFPENVECLRFLVRLCTDLGLKDAQEYARKLKRLEKMKEIREQRIKSGRDGSGGSRGKREGSASGDSGQNYSASSKGERLSARLRALPGTNEPYESSSNKEIDASYVDPLGPQIERPKTAAKKRIDEDDFADEELGDDLLPE
# Experiments:
# [1] = biological target: Sec10-GST (full-length human Sec10 fused to GST) (human) (UniProt O00471); test: pull-down; Sec10-GST or GST only bound to glutathione-Sepharose, incubated overnight with lysate of wild-type HEK293 cells; Western blot for IFT88, IFT20, Sec8, GAPDH; only the target purified
# [2] = biological target: T1, polycystin-2 (endogenous, mouse) (mouse (endogenous in mouse kidney and in 94D and BAP2 cells)) (UniProt O35245); test: co-IP; intracellular vesicle fractions of mouse kidney lysate incubated overnight with polycystin-2 antibody or control mouse IgG, ProteinG Dynabeads; Western blot for Sec8
# T1 sequence: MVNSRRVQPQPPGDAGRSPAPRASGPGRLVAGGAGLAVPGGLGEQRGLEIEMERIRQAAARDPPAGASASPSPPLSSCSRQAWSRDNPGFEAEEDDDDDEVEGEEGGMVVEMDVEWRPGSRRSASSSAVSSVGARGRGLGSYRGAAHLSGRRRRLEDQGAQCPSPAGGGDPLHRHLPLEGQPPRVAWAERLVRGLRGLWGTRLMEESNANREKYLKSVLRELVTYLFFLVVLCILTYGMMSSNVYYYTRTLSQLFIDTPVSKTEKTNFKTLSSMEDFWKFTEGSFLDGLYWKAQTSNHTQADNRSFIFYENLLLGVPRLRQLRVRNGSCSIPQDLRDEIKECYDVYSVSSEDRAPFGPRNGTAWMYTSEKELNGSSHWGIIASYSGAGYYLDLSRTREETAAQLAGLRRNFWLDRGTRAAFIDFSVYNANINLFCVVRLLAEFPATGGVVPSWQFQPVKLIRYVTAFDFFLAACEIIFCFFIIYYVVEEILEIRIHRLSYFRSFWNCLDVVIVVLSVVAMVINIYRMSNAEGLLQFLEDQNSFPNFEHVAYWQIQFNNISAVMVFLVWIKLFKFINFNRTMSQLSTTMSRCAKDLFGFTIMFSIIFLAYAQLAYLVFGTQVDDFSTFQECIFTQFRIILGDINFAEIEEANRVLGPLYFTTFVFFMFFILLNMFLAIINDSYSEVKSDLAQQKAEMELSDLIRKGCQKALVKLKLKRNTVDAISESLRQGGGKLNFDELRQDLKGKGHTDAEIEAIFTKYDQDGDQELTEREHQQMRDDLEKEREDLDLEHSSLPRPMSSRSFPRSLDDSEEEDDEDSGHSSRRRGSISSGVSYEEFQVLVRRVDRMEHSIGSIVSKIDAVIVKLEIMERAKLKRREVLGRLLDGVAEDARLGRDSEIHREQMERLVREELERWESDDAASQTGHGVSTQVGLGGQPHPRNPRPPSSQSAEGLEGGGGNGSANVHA
# [3] = biological target: Sec10-GST (full-length human Sec10 fused to GST) (human) (UniProt O00471); test: pull-down; in vitro translated Sec8, polycystin-2, IFT88 and p53, followed by pulldown with Sec10-GST; only the target purified
Molecule,binding [1],binding [3],further results
"GAPDH (endogenous, HEK293) (from UniProt P04406 1-335)",no binding,,
"IFT20 (endogenous, HEK293) (from UniProt Q8IY31 1-132)",binds,,
"exocyst Sec8 (endogenous, mouse kidney) (from UniProt O35382 1-975)",,,binding [2]: binds
p53 (in vitro translated) (from UniProt P04637 1-393),,no binding,
B1,,no binding,
B2,,no binding,
